In the supplement of paper PMC10849652:
The other results are listed elsewhere or left out.

The chains behind the UniProt entries cited, without tags or fusion partners. Where a name states a change or a piece, a line headed by the entry shows the natural chain unless it says otherwise.
UniProt Q14980: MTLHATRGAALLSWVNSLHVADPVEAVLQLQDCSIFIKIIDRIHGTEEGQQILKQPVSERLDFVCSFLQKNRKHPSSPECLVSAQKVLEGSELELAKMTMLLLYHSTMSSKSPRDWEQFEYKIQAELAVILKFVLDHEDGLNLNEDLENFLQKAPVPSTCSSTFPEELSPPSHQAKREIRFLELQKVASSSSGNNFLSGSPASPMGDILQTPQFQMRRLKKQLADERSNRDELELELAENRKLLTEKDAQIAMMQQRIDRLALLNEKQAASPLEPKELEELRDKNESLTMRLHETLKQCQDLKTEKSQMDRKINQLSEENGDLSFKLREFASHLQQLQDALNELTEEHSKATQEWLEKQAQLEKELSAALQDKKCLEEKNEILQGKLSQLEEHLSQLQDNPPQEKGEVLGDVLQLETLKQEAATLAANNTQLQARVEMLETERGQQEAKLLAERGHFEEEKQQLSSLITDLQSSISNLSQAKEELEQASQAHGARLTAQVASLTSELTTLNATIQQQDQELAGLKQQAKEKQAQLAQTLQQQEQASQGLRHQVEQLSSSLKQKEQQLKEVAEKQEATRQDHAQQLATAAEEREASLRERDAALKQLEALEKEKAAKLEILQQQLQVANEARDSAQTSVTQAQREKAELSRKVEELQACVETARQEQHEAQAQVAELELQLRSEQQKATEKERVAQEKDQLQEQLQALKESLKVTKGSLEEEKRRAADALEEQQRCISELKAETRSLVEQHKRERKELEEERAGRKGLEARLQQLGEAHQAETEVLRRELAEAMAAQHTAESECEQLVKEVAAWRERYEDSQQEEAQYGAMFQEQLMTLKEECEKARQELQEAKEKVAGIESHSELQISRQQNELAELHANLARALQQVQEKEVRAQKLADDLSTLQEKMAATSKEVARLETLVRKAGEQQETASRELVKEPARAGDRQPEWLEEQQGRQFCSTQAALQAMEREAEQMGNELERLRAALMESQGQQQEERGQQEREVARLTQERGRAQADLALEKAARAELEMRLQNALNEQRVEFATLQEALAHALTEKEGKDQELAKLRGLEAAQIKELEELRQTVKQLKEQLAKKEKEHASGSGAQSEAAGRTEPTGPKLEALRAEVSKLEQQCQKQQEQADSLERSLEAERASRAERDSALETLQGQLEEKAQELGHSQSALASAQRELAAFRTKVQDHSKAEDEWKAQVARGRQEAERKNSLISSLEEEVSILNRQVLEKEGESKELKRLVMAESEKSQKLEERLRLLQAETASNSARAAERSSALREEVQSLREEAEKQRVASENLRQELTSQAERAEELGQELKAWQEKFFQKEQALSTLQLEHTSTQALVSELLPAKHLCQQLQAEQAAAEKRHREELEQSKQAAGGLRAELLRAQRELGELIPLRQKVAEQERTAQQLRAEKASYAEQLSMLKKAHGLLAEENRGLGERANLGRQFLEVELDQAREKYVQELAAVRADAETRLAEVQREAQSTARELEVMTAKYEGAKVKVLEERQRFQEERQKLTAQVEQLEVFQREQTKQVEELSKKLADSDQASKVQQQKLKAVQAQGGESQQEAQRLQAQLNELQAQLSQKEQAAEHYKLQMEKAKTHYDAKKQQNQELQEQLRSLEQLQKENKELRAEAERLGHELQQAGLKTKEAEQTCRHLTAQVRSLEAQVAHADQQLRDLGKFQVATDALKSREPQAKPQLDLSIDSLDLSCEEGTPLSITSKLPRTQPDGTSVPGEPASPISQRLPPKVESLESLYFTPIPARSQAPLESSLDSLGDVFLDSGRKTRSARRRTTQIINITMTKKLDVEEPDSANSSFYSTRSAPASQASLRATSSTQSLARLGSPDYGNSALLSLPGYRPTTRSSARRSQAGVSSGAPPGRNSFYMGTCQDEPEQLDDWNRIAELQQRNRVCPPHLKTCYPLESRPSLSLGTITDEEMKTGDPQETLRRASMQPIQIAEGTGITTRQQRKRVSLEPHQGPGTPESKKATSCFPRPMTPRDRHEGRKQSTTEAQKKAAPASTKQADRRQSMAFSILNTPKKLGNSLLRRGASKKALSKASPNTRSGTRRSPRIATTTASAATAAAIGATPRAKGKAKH
UniProt P22392, whole entry, looked up: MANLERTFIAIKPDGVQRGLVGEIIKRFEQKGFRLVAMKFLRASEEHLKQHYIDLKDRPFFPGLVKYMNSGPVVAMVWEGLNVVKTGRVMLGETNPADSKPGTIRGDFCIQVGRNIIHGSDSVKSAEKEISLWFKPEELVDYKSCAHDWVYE
UniProt Q9NV35: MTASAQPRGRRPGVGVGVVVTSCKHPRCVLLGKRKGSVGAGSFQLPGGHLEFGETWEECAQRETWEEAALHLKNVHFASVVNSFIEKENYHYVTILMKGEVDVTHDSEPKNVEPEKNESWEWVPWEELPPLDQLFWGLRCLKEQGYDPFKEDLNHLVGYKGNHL
UniProt Q08J23, whole entry, looked up: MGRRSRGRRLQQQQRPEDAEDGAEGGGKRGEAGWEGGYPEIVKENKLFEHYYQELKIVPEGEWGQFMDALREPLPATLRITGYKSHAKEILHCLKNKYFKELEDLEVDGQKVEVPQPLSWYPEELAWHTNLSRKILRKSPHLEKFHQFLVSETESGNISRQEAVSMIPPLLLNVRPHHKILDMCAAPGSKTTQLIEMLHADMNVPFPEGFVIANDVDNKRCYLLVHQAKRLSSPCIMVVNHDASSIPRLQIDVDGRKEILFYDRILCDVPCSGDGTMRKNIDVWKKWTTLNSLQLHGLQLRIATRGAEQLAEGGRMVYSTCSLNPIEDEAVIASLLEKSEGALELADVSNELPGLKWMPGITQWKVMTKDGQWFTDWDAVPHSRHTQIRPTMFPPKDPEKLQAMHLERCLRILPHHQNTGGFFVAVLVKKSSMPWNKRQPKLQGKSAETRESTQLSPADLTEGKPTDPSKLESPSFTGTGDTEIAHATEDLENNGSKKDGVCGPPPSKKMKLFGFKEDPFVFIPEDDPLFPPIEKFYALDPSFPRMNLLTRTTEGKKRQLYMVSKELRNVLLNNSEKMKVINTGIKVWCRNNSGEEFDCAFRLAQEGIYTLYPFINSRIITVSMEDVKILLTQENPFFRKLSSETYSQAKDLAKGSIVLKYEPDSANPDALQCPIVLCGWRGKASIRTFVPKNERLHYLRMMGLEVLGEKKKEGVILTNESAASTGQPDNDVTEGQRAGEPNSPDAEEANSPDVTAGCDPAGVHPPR
UniProt Q9NSY0: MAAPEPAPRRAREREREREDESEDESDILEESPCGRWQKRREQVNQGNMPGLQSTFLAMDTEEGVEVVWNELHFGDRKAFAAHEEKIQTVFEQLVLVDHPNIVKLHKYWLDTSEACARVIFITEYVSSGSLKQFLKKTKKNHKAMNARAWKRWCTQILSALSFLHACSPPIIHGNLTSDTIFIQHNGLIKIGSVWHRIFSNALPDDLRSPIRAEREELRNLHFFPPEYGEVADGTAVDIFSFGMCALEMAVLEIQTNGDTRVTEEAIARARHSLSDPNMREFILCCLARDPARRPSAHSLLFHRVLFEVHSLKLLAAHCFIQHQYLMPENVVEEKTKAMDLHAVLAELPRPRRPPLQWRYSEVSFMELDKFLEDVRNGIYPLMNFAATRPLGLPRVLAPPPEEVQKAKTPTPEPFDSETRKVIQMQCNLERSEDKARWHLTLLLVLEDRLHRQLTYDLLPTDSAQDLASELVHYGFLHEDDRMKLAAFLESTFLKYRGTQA
UniProt Q9H857: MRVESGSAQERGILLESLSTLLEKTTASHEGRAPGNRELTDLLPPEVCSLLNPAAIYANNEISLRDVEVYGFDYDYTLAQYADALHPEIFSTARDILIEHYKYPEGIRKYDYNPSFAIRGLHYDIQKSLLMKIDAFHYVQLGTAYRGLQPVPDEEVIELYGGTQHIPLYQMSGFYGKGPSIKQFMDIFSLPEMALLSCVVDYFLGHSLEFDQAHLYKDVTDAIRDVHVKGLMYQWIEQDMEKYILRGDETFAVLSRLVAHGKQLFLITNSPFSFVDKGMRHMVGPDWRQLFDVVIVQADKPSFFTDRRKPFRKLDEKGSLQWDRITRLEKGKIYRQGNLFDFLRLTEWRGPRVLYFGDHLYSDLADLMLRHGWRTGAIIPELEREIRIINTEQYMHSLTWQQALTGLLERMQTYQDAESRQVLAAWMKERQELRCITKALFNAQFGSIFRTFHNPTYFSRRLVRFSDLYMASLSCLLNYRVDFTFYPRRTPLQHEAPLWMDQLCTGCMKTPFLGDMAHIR
UniProt P53384: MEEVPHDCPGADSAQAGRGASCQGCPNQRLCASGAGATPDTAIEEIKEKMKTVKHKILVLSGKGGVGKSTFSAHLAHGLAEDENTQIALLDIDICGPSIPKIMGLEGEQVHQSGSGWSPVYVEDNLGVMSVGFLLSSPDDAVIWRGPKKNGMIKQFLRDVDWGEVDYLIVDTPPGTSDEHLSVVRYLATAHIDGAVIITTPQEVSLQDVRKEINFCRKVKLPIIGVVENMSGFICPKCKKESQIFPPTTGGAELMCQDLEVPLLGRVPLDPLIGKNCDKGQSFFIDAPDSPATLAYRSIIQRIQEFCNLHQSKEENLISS
UniProt Q9HAN9, whole entry, looked up: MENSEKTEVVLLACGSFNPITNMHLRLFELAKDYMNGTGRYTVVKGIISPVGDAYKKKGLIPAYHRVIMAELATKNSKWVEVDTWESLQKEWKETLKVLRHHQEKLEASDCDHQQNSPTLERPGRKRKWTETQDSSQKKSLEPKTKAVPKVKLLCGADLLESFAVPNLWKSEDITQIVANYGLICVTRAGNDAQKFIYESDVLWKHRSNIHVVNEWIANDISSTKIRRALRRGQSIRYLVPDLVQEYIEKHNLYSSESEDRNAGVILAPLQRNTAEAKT
UniProt P49902: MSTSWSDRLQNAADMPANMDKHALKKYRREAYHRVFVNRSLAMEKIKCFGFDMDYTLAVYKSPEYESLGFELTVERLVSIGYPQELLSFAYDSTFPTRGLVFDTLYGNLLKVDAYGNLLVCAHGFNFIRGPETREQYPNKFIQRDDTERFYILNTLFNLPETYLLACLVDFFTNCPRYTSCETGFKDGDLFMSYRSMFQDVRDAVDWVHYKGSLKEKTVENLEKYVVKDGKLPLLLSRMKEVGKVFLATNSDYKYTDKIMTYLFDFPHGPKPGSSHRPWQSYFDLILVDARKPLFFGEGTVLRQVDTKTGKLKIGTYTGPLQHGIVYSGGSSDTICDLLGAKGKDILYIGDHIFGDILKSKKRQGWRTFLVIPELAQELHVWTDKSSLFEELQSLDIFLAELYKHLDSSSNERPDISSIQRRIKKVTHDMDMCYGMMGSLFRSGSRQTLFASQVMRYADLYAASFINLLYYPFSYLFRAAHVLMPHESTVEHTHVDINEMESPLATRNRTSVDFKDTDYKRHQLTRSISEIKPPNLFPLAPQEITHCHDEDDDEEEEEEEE
UniProt Q9H0G5: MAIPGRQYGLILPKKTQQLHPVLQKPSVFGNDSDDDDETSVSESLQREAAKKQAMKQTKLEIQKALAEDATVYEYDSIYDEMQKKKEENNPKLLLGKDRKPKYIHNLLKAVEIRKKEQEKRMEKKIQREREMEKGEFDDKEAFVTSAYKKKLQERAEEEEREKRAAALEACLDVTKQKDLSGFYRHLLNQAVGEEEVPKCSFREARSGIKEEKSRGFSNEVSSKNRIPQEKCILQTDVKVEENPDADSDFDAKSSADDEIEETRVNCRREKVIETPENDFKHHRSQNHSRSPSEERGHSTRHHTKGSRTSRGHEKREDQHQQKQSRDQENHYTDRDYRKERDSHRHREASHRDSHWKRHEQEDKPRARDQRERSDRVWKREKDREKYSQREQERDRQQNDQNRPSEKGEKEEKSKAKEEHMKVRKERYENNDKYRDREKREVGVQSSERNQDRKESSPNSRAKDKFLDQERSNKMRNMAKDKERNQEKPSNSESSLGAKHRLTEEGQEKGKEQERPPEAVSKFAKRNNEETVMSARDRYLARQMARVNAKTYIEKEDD
UniProt Q9NZJ9: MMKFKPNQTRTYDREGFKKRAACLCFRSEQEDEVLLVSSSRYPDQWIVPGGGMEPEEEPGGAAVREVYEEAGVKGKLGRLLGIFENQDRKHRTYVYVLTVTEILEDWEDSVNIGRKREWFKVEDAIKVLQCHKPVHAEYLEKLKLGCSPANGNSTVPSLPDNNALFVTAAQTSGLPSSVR
UniProt Q96IY1: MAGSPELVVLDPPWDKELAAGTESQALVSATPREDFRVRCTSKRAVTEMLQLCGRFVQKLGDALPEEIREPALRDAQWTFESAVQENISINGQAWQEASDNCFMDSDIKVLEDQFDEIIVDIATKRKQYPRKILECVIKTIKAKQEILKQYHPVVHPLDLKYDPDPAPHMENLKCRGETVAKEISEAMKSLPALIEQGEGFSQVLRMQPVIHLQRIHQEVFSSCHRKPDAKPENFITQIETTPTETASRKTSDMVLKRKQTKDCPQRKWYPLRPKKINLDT

Compound: Cn1cncc1[C@@](N)(c1ccc(Cl)cc1)c1ccc2c(c1)c(-c1cccc(Cl)c1)cc(=O)n2C [tipifarnib]
Assay: log2 fold change, soluble protein after heating vs DMSO (PISA); higher = thermal stabilisation; K562 lysate, 10 uM; active = over 0.2 and 3.5 SD of the protein, either way, in both replicates (recomputed)
Outline: (§1)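 Values give the log-two fold change in thermal stability against solvent controls, from duplicates. Crude K562 extract at 1 mg/mL protein, made by dounce homogenisation in PBS pH 7.4 with 1 mM MgCl2, was treated with 10 μM compound for 30 min. After 3 min heating across 48°C-58°C, aliquots were pooled, adjusted to 0.5% NP-40 at 4°C and centrifuged at 21,000xg for 90 min. The supernatant was measured by TMTpro 16plex LC-MS/MS with channel sums equalised.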

Target	log2 fold change
NUMA1 (UniProt Q14980)	inactive: -0.007
NME2 isoform 2 (UniProt P22392)	inactive: 0.025
NUDT15 (UniProt Q9NV35)	inactive: 0.03
NT5C (UniProt Q8TCD5)	inactive: 0.029
NSDHL (UniProt Q15738)	inactive: 0.012
NSUN2 (UniProt Q08J23)	inactive: 0.027
NT5DC1 (UniProt Q5TFE4)	inactive: -0.019
NRBP2 (UniProt Q9NSY0)	inactive: -0.034
NT5DC2 isoform 2 (UniProt Q9H857)	inactive: -0.027

Quoted from the listing.
In log2 fold change, NME2 isoform 2 (UniProt P22392) has inactive: 0.025
In log2 fold change, NUDT15 (UniProt Q9NV35) has inactive: 0.03

Compound: NC(=O)Nc1cc(-c2cccc(F)c2)sc1C(=O)N[C@H]1CCCNC1
Assay: as above
Outline: as §1

Target	log2 fold change
NUDT5 (UniProt Q9UKK9)	inactive: -0.018
NOL12 (UniProt Q9UGY1)	inactive: -0.051
NUBP1 (UniProt P53384)	inactive: -0.012
NUMBL (UniProt Q9Y6R0)	active: -0.415
NUDT12 (UniProt Q9BQG2)	inactive: 0.013
NMNAT1 (UniProt Q9HAN9)	inactive: 0.006
NT5C2 (UniProt P49902)	inactive: 0.015
NSRP1 (UniProt Q9H0G5)	inactive: -0.027
NUDT4 isoform 2 (UniProt Q9NZJ9)	inactive: 0.016
NSL1 (UniProt Q96IY1)	inactive: -0.003
NSFL1C isoform 5 (UniProt Q9UNZ2)	inactive: 0.006
NSUN5 isoform 2 (UniProt Q96P11)	inactive: 0.048
NRAS (UniProt P01111)	inactive: -0.029
NOC3L (UniProt Q8WTT2)	inactive: 0.034
